The record followed here is PubChem BioAssay AID2685 (National Center for Advancing Translational Sciences (NCATS), 2010).

This is one part of the list. The main result of the screen is listed elsewhere. These columns were measured beside it and carry no call. Compounds called inactive in the main read-out are mostly missing here. The note in brackets gives the kind of curve behind each potency; many fits are weak.

A short description of this test: qHTS Assay for Lipid Storage Modulators in Drosophila S3 Cells.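 On cell number change: cells counted by Cell Tracker Red CMTPX staining in the red channel.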 Conditions: BODIPY lipid droplet fluorescence, 18-24 h; for cell number change: measured here: cell count max response, cells fed with added oleic acid. In short, it runs like this:
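Drosophila S3 cells loaded with oleic acid (400 uM, as added) and compounds at several concentrations; lipid droplets imaged by 488-nm laser-scanning cytometry, 500–530 nm intensity and object ratio to cell channel. Percent activity normalized to 20 uM Triacsin C.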

Where [1] appears, read: measured here: lipid fluorescence (Fed channel) AC50, cells fed with added oleic acid.
Setting [2] is: measured here: cell number channel AC50, cells fed with added oleic acid.

On to `CCCC(=O)C1=C(N(C)c2ccccc2)CC(C)(C)C(C(=O)OC)C1=O` (centres undefined), for which the cell number change came to 27%. In addition, under setting [1], the AC50 was 29.1 µM [rising, single point].
For `CCOC(=O)c1c(C)c(C(=O)NCc2ccccn2)c(C)n1C`, the cell number change was -14.2%.
As for `CCN(c1ccccc1)S(=O)(=O)c1ccc(C(=O)Nc2ccc(C)cn2)cc1`, the cell number change stood at 23.7%.
Consider `CN(C)C(CN1C(=O)C2CC=CCC2C1=O)c1cn(C)c2ccccc12` (centres undefined), for which the cell number change worked out at 2.52%. Also, under setting [1], the AC50 was 29.1 µM [rising, single point].
As to `C=CCN1C(=O)/C(=C\c2cccs2)C(C(=O)OC)=C1C`, the cell number change was determined as 52.7%. Moreover, the half-maximal activity concentration (AC50) under setting [2] is 18.4 µM [rising, single point].
As to `OCCOCCOCCn1c2ccccc2c2ccccc21`, the cell number change was -11.9%. Also, the AC50 under setting [1] is 5.8 µM [falling, full curve].
For the molecule `Cc1ccccc1Cn1cccc1/C=C1/C(=N)N2C=CSC2=NC1=O`, the half-maximal activity concentration (AC50) under setting [2] is 1.84 µM [rising, partial curve].
`O=C(Nc1ccccc1C(=O)N1CCCCC1)c1ccco1`: the cell number change stood at 18.4%.
Turning to `COc1ccc(CN2C(=O)c3ccccc3C2=O)cc1C(=O)OC(C)C(=O)NC(N)=O` (centres undefined), the cell number change was 19.1%. Moreover, the AC50 under setting [1] is 13 µM [rising, partial curve].
Consider `CC(Sc1nc(NCc2ccccc2)nc(N(C)C)n1)C(=O)Nc1ccccc1` (centres undefined), for which the cell number change is -53.7%. In addition, the AC50 under setting [2] was 29.1 µM [falling, single point]. In addition, the AC50 under setting [1] is 2.31 µM [falling, full curve].
For the molecule `Cc1ccc2c(CC(=O)NCCc3ccc(S(N)(=O)=O)cc3)coc2c1`, the cell number change is -11%. Further, under setting [1], the AC50 was 20.6 µM [falling, single point].
Regarding `Cc1ccc2oc(=O)c3cnn(CC(=O)N4CCN(c5ccccc5)CC4)c3c2c1`, the concentration at half-maximal activity (AC50) under setting [2] was 0.00411 µM [rising, full curve, poor fit].
For the molecule `CCN1C(=O)[C@H]2[C@@H](c3ccc(Cl)cc3)N3C(=O)CN(CCOC)C(=O)[C@@]3(Cc3ccccc3)[C@H]2C1=O`, the cell number change was found to be 22.5%. Besides, the AC50 under setting [1] is 29.1 µM [rising, single point].
With `O=C(Cc1ccccc1)Nc1ccccc1C(=O)N1CCCCCC1`, the cell number change amounted to 6.77%. For the same molecule, the AC50 under setting [2] was 0.00461 µM [falling, full curve, poor fit]. In addition, under setting [1], the AC50 is 0.00461 µM [falling, full curve, poor fit].
In the case of `CC(C)n1c(CSCc2ccc(Cl)cc2Cl)n[nH]c1=S`, the cell number change was -9.17%. For the same molecule, the half-maximal activity concentration (AC50) under setting [2] is 0.651 µM [rising, full curve, poor fit]. In addition, the AC50 under setting [1] was 0.731 µM [rising, full curve, poor fit].
As for `N/C(=N\OC(=O)CCCc1ccccc1)c1ccccc1`, the cell number change is 13.8%.
Regarding `O=C(NCc1ccccc1Cl)C1CCN(S(=O)(=O)N2CCCC2)CC1`, the cell number change is 7.95%. Further, the AC50 under setting [1] is 0.651 µM [falling, single point].
Regarding `Cc1cc(C)cc(NC(=O)N2CCCC2C(=O)Nc2ccc(-n3cnnn3)cc2)c1` (centres undefined), the AC50 under setting [1] is 6.51 µM [falling, single point].
Regarding `Cc1ccc(-c2cc(C(=O)N/N=C/c3ccoc3)c3ccccc3n2)cc1`, the cell number change was -9.35%.
For `O=C(CN(C(=O)c1csnn1)c1cccc(Cl)c1)NC1CCCCC1`, the cell number change turned out to be 17.9%.
Consider `O=C(COC(=O)COc1ccc(Cl)cc1)NC1CCS(=O)(=O)C1` (centres undefined), for which the cell number change was determined as 11.5%. Further, the AC50 under setting [1] is 0.00461 µM [rising, full curve, poor fit].
For `c1ccc2c(c1)CCCN2Cc1nnc2n1CCCCC2`, the cell number change is -8.78%. The AC50 under setting [1] was 6.51 µM [rising, single point].
Consider `O=C(Nc1ccc2oc(-c3ccncc3)nc2c1)c1ccc([N+](=O)[O-])o1`, for which the cell number change is -13.3%. Besides, the half-maximal activity concentration (AC50) under setting [1] was 6.51 µM [rising, single point].
Take `CNC(=O)COc1ccc2oc3c(c2c1)CCCC3`: the cell number change was found to be 3.33%. Further, under setting [1], the half-maximal activity concentration (AC50) is 0.366 µM [rising, partial curve].
On to `COc1ccccc1-c1cnn2c(NCCc3ccccc3)cc(C)nc12`, for which the cell number change turned out to be 33.1%. Also, the AC50 under setting [2] is 0.00411 µM [rising, full curve, poor fit].
As for `O=C(CN1C(=O)NC2(CCc3ccccc32)C1=O)c1ccc(F)cc1` (centres undefined), the cell number change turned out to be 9.22%. For the same molecule, the AC50 under setting [1] was 32.6 µM [falling, single point].
Consider `O=C(c1ccccc1)N1N=C(C(F)(F)F)CC1(O)c1ccccc1O` (centres undefined), for which the cell number change was 17.5%. Besides, under setting [1], the AC50 is 10.3 µM [rising, partial curve, poor fit].
Consider `COc1ccc2cc(CCNS(=O)(=O)c3ccc(NC(C)=O)cc3)c(=O)[nH]c2c1`, for which the cell number change was 12.2%.
In the case of `c1ccc(-c2csc(Nc3cccnc3)n2)nc1`, the cell number change is -2.11%. Moreover, under setting [1], the AC50 was 0.231 µM [rising, full curve, poor fit].
On to `O=C(C1CCN(CCCc2ccccc2)CC1)N(CCc1ccccc1)Cc1ccccc1`, for which the cell number change was -38.9%. The AC50 under setting [2] was 32.6 µM [falling, single point]. Further, the AC50 under setting [1] is 29.1 µM [falling, single point].
As to `CCn1c(CCNC(=O)c2ccc(OC)cc2)nnc1SCc1ccc(Cl)cc1Cl`, the cell number change was determined as 9.84%. Further, the concentration at half-maximal activity (AC50) under setting [1] is 18.4 µM [falling, partial curve].
As for `CC1=NN(C(=O)Cn2ccc([N+](=O)[O-])n2)C(O)(C(F)(F)F)C1` (centres undefined), the cell number change was -29.7%. For the same molecule, the concentration at half-maximal activity (AC50) under setting [1] was 1.46 µM [falling, full curve].
`CC(=O)NC(CCS(C)(=O)=O)C(=O)Nc1cc(C)ccc1C` (centres undefined): the half-maximal activity concentration (AC50) under setting [1] is 6.51 µM [falling, single point].
Turning to `Cc1cc(C)n2nc(C(=O)Nc3ccc(S(=O)(=O)N4CCCCC4)cc3)nc2n1`, the cell number change is -15.8%. Moreover, the AC50 under setting [1] is 18.4 µM [falling, partial curve].
For the molecule `COc1ccccc1C(=O)N1CCN=C1SC`, the cell number change was -59.2%. For the same molecule, the half-maximal activity concentration (AC50) under setting [2] is 25.9 µM [falling, partial curve].
As to `Cc1ccc(S(=O)(=O)N(Cc2cc3ccccc3[nH]c2=O)CC2CCCO2)cc1` (centres undefined), the cell number change is -30.3%. Besides, the AC50 under setting [2] is 1.84 µM [falling, full curve]. The concentration at half-maximal activity (AC50) under setting [1] is 20 µM [falling, single point].
`CCc1ccc(N2CC(C(=O)Nc3cccnc3)CC2=O)cc1` (centres undefined): the cell number change was 4.97%. Further, the AC50 under setting [1] was 0.82 µM [rising, full curve, poor fit].
For the molecule `S=c1[nH]nc(CSCCOc2ccccc2)o1`, the cell number change was -7.13%.
With `CCOC(=O)c1nn(-c2ccccc2)c(=O)cc1OCC(=O)Nc1cccc(OC)c1`, the cell number change came out at 32%. Under setting [2], the AC50 was 2.31 µM [rising, full curve, poor fit].
Consider `COc1ccc2nc(NC(=O)C3CCN(C(=O)c4ccco4)CC3)sc2c1`, for which the cell number change amounted to 2.1%.
Take `COc1ccc(CCNC(=O)c2ccc3c(c2)N(Cc2ccc(F)cc2)CCS3)cc1OC`: the cell number change was -35.8%. The concentration at half-maximal activity (AC50) under setting [2] is 9.2 µM [falling, partial curve, poor fit]. The concentration at half-maximal activity (AC50) under setting [1] is 0.184 µM [falling, partial curve].
In the case of `Cn1c(-c2ccc(F)cc2)cc2onc(-c3ccccc3Cl)c2c1=O`, the cell number change was -23.4%. Also, the concentration at half-maximal activity (AC50) under setting [1] is 0.461 µM [rising, partial curve, poor fit].
Consider `O=C(OCn1ncc(Br)c(Br)c1=O)c1ccccc1Cl`, for which the cell number change was -92.3%. For the same molecule, under setting [2], the AC50 was 16.4 µM [falling, partial curve]. In addition, the AC50 under setting [1] was 0.731 µM [falling, single point].
On to `Cc1cc(C)cc(NC(=O)c2cccc3c2C(=O)N(C2CCCCC2)C3)c1`, for which the concentration at half-maximal activity (AC50) under setting [1] was 5.17 µM [rising, single point].
For the molecule `CC(=O)NCc1ccc(-c2csc(NC(=O)CCCc3nc4ccccc4c(=O)[nH]3)n2)cc1`, the cell number change was -5.36%. For the same molecule, the AC50 under setting [1] is 6.51 µM [falling, single point].
Regarding `CC(C(=O)N(C)C1CCS(=O)(=O)C1)N1C(=O)/C(=C/c2cccs2)SC1=S` (centres undefined), the cell number change came out at 22.9%.
Regarding `CCCCN=C1NN=C(c2cccc([N+](=O)[O-])c2)CS1`, the cell number change came to 13.6%. Besides, the AC50 under setting [2] is 0.0291 µM [falling, full curve, poor fit]. Moreover, under setting [1], the half-maximal activity concentration (AC50) was 14.6 µM [rising, partial curve].
For `COc1ccc(/C=N/n2c(-c3ccccc3)n[nH]c2=S)cc1`, the cell number change is -15.7%. The concentration at half-maximal activity (AC50) under setting [1] is 0.58 µM [rising, single point].
`CCNC(=S)NNC(=O)c1cc(C)nc2ccccc12`: the cell number change amounted to 10.1%. Also, the AC50 under setting [1] was 29.1 µM [rising, single point].
Regarding `CCCN1C(=O)c2ccccc2NC1c1ccc(C)cc1` (centres undefined), the cell number change is 11.6%. In addition, the AC50 under setting [1] was 1.84 µM [rising, partial curve, poor fit].
`COCCNc1nc(-c2cc3ccccc3o2)cs1`: the half-maximal activity concentration (AC50) under setting [1] is 18.4 µM [rising, single point].
Regarding `Cc1ccc(C)c(NC(=S)NCc2cccn2C)c1`, the cell number change is -8.99%. The AC50 under setting [1] was 20.6 µM [falling, single point].
In the case of `CCc1c(C)sc(NC(=O)Cn2nc(C)c([N+](=O)[O-])c2C)c1C(N)=O`, the cell number change is -10.1%. Besides, under setting [2], the AC50 is 0.146 µM [falling, full curve, poor fit]. Besides, the AC50 under setting [1] was 0.366 µM [falling, partial curve, poor fit].
For `O=C(Nc1cccnc1)c1cc(-c2ccc(Cl)c(Cl)c2)on1`, the cell number change is 11.8%. Further, the AC50 under setting [1] was 2.31 µM [rising, full curve].
As for `CCC(=O)Nc1cc(Cl)ccc1N1CCN(C(=O)CC)CC1`, the concentration at half-maximal activity (AC50) under setting [1] was 0.461 µM [rising, partial curve, poor fit].
Take `O=C(O)CSc1cc(NS(=O)(=O)c2ccc(Cl)cc2)c2ccccc2c1O`: the cell number change is -9.72%. Also, the AC50 under setting [1] was 0.58 µM [falling, single point].
Take `COc1ccc(CCNC(=O)CSc2nnc(CNC(=O)c3c(F)cccc3Cl)o2)cc1OC`: the cell number change is -10.2%.
As for `O=C1C2=C(NC(=S)NC2c2ccc(Cl)cc2)NC(c2ccc(Cl)cc2)N1c1ccc(Cl)cc1` (centres undefined), the cell number change is -53.8%. Moreover, the AC50 under setting [2] is 29.1 µM [falling, single point]. The half-maximal activity concentration (AC50) under setting [1] was 29.1 µM [falling, single point].
For the molecule `Nc1c(N(Cc2ccco2)C(=O)c2ccc(Cl)cc2)c(=O)[nH]c(=O)n1Cc1ccccc1`, the cell number change was -20.9%. The half-maximal activity concentration (AC50) under setting [1] was 7.31 µM [rising, full curve, poor fit].
Consider `COc1ccc(CNC(=O)COC(=O)c2ccc(F)c(S(=O)(=O)N3CCCCC3)c2)cc1OC`, for which the cell number change was -9.96%. The half-maximal activity concentration (AC50) under setting [1] is 23.1 µM [falling, single point].
Turning to `Cc1cc2c(c(=O)o1)C(CCC1CCCCC1)C(C#N)=C(N)O2` (centres undefined), the cell number change turned out to be 0.234%. Under setting [1], the half-maximal activity concentration (AC50) was 6.51 µM [falling, single point].
